Reference: PMC7765506
Results are given in words; binding and its absence hold for the method and conditions named. In cells and extracts the contact can be indirect. Some results given as binding are weak or reduced against the parent protein; the word gives no strength. Values belong to the molecule of their own block, whether it stands above or below them.

Protein sequences, listed by entry. Tags and fused reporters are not part of them.
UniProt P49841: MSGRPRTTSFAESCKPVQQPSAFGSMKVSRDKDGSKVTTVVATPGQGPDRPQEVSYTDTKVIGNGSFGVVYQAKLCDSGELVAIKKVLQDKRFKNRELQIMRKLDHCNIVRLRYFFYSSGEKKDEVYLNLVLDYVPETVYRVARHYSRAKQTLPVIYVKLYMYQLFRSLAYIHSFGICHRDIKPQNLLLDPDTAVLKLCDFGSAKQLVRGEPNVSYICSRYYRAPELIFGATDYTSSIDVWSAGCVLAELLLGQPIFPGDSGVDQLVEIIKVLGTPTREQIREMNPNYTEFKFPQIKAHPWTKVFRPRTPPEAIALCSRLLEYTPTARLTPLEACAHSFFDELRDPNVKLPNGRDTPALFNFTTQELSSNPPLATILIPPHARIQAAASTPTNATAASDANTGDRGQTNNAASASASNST

Experiments:
[1] = molecular target: Tribbles pseudokinase 3 (human (endogenous in AN3CA and HEC1A)) (UniProt Q96RU7); test: co-IP; 0.5 mg of total cellular proteins from AN3CA cells, immunoprecipitation with an anti-TRIB3 antibody or control IgG in IP buffer (20 mM HEPES pH 7.9, 2 mM MgCl2, 0.2 mM EDTA, 0.1 mM KCl, 1 mM dithiothreitol, 10% glycerol, 0.1% NP-40) at 4 °C overnight, Protein G Mag sepharose beads, Western blot
[2] = molecular target: T1, Tribbles pseudokinase 3 (human (endogenous in AN3CA and HEC1A)), Q96RU7; test: as above; settings: remark: other sources report otherwise
T1 chain: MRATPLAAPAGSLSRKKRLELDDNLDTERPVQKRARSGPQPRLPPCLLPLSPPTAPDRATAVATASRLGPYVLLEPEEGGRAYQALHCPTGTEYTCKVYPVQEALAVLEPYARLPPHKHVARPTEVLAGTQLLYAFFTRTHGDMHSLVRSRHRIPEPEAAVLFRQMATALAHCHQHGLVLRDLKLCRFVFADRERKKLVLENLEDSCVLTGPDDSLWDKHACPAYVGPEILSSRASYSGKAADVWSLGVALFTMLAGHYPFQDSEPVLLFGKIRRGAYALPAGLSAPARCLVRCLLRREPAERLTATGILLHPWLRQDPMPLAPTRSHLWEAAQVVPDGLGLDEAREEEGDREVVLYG

binding [1]: binds
Molecule: GSK3β (from UniProt P49841 1-420)

binding [2]: no binding
B1: β-catenin, P35222 1-781 (protein)
chain: MATQADLMELDMAMEPDRKAAVSHWQQQSYLDSGIHSGATTTAPSLSGKGNPEEEDVDTSQVLYEWEQGFSQSFTQEQVADIDGQYAMTRAQRVRAAMFPETLDEGMQIPSTQFDAAHPTNVQRLAEPSQMLKHAVVNLINYQDDAELATRAIPELTKLLNDEDQVVVNKAAVMVHQLSKKEASRHAIMRSPQMVSAIVRTMQNTNDVETARCTAGTLHNLSHHREGLLAIFKSGGIPALVKMLGSPVDSVLFYAITTLHNLLLHQEGAKMAVRLAGGLQKMVALLNKTNVKFLAITTDCLQILAYGNQESKLIILASGGPQALVNIMRTYTYEKLLWTTSRVLKVLSVCSSNKPAIVEAGGMQALGLHLTDPSQRLVQNCLWTLRNLSDAATKQEGMEGLLGTLVQLLGSDDINVVTCAAGILSNLTCNNYKNKMMVCQVGGIEALVRTVLRAGDREDITEPAICALRHLTSRHQEAEMAQNAVRLHYGLPVVVKLLHPPSHWPLIKATVGLIRNLALCPANHAPLREQGAIPRLVQLLVRAHQDTQRRTSMGGTQQQFVEGVRMEEIVEGCTGALHILARDVHNRIVIRGLNTIPLFVQLLYSPIENIQRVAAGVLCELAQDKEAAEAIEAEGATAPLTELLHSRNEGVATYAAAVLFRMSEDKPQDYKKRLSVELTSSLFRTEPMAWNETADLGLDIGAQGEPLGYRQDDPSYRSFHSGGYGQDALGMDPMMEHEMGGHHPGADYPVDGLPDLGHAQDLMDGLPPGDSNQLAWFDTDL
